# The list shows a part of the results. Shown are side measurements of this screen, not its main read-out; they come without a call. The list favours compounds with an active or inconclusive main result. The note in brackets gives the kind of curve behind each potency; many fits are weak.
# Experiment: Cell signaling CRE-BLA (Fsk stim)
# Settings: CHO CRE-bla reporter (cAMP response element driving beta-lactamase), forskolin EC10, beta-lactamase ratio; measured here: 460 nm blue channel
# In short: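 Reporter-gene assay: CHO cells with beta-lactamase behind cAMP responsive elements, co-treated with compound and EC10 NKH 477 for 3 hours at 37 degrees Celsius. Activity came from the 460/530 nm CCF4 emission ratio.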
row,SMILES,AC50
1,N#Cc1c2c(c(N3CCN(c4ccccn4)CC3)n3c1nc1ccccc13)CCC2,"15.8 µM [rising, partial curve]"
2,COc1ccc2cc(CN(C(=O)Nc3ccccc3OC)C3CCCC3)c(=O)[nH]c2c1,"12.6 µM [rising, partial curve]"
3,COc1ccc(C)cc1Nc1cc(C)nc2nc(C)nn12,"12.6 µM [rising, partial curve]"
4,NC(=O)c1c(-c2ccccc2)oc2ccc(O)cc12,"10 µM [falling, partial curve, poor fit]"
5,CCOC(=O)C(Oc1ccc(=O)n(-c2ccccc2)n1)C(C)=O (centres undefined),"0.316 µM [rising, partial curve]"
6,C=CCn1c(=O)c(C(=O)Nc2ccccc2O)c(O)c2ccccc21,"15.8 µM [rising, single point]"
7,N#Cc1cc2c(nc1SCC(=O)Nc1nccs1)CCCCC2,"12.6 µM [rising, partial curve]"
8,N#CCCn1c(=O)c(-c2ccc(Cl)cc2)nc2cnc(N3CCOCC3)nc21,"10 µM [rising, partial curve]"
9,C[N+](C)(C)CCC(=O)c1cccc2ccccc12,"15.8 µM [falling, partial curve]"
10,O=C(NNS(=O)(=O)c1ccccc1)c1cccnc1,"0.0126 µM [rising, full curve, poor fit]"
11,N#Cc1c(N)nc(SC2CCCCC2=O)c(C#N)c1-c1ccco1 (centres undefined),"10 µM [rising, partial curve]"
12,COCCn1c(=O)c(-c2cc(F)cc(F)c2)nc2cnc(N3CCNCC3)nc21,"3.16 µM [rising, full curve]"
13,Nc1ccc(-c2nc3c(Cl)cc(N)cc3[nH]2)cc1,"20 µM [falling, single point]"
14,COCCOC(=O)c1c(C)oc2ccc(OC(=O)c3ccc4c(c3)OCO4)cc12,"1.26 µM [rising, partial curve]"
15,CC(C)C[C@H](NC(=O)NCc1ccccc1Cl)C(=O)O,"5.01 µM [falling, full curve]"
16,Fc1ccc2[nH]c3c(N4CCN(c5ccccc5)CC4)ncnc3c2c1,"10 µM [falling, partial curve]"
17,O=C(NCc1ccco1)c1cc2cc3ccc(Cl)cc3nc2o1,"0.631 µM [rising, partial curve]"
18,CCc1nc(N)c(C#N)c(-c2ccncc2)c1C,"12.6 µM [rising, partial curve]"
19,CC(=O)N1CCC(C(=O)Nc2nc(-c3ccccc3)ns2)CC1,"10 µM [rising, partial curve]"
20,COc1ccc2[nH]c(=O)c(CN(C(=O)c3ccccn3)C3CCCCC3)cc2c1,"7.94 µM [rising, partial curve]"
21,CCOP(=O)(c1c(F)c(F)c(F)c(F)c1F)C(O)c1ccccc1 (centres undefined),"5.01 µM [falling, partial curve]"
22,O=C(COC(=O)c1cccc(S(=O)(=O)N2CCc3ccccc3C2)c1)NCc1ccco1,"1.26 µM [falling, partial curve, poor fit]"
23,Cc1ccc(C(=O)NC2CCCc3ccccc32)o1 (centres undefined),"12.6 µM [falling, partial curve]"

row,SMILES,AC50
1,CCCCOc1ccccc1-c1cc(C(=O)O)[nH]n1,"0.126 µM [falling, partial curve, poor fit]"
2,COc1cc(C(=O)Oc2c(CN3CCOCC3)cc(Cl)c3cccnc23)cc(OC)c1OC,"5.01 µM [rising, partial curve]"
3,CCOc1ccc2noc3c2c1C(=O)c1ccccc1-3,"10 µM [rising, partial curve]"
4,Clc1cccc(-c2nc3nc4ccccc4nc3n2Cc2ccco2)c1,"10 µM [rising, partial curve]"
5,CC1CCC(NC(=O)CN2C(=O)C3CCCN3c3ncc(Cl)cc32)CC1 (centres undefined),"10 µM [rising, partial curve]"
6,Cc1cc(NC(=O)CSc2nc3cc4c(cc3c(=O)n2CCc2ccccc2)OCO4)no1,"12.6 µM [rising, single point]"
7,CCOc1ccccc1N1CCN(Cc2ccc(OC)c(OC)c2)CC1,"0.398 µM [rising, full curve]"
8,COc1ccc(C(C)=O)cc1COC(=O)c1cc(C)oc1C,"12.6 µM [rising, partial curve]"
9,Nc1ncnc2c1nc(Br)n2[C@@H]1O[C@H]2COP(=O)(O)O[C@@H]2[C@H]1O,"25.1 µM [rising, partial curve]"
10,CC(C)OC(=O)C(C#N)c1nc2ccccc2nc1N1CCN(Cc2ccccc2)CC1 (centres undefined),"10 µM [rising, partial curve]"
11,COC(=O)c1ccc(C2C(C#N)=C(N)Oc3cc(C)n(C)c(=O)c32)cc1 (centres undefined),"15.8 µM [rising, single point]"
12,CCN(CC)CCN(CC)Cc1ccccc1Br,"1.26 µM [falling, partial curve]"
13,CN1CCc2c(sc(/N=C/c3ccco3)c2C(N)=O)C1,"10 µM [rising, single point]"
14,Cc1ccccc1-c1nc(CN2CCC(C(=O)NCCCN3CC(C)CC(C)C3)CC2)c(C)o1 (centres undefined),"3.16 µM [falling, full curve, poor fit]"
15,Cc1ccc(Cl)cc1N1CCN(Cc2nc3c(c(=O)[nH]c(=O)n3C)n2CCc2ccccc2)CC1,"0.02 µM [rising, full curve]"
16,O=c1c2ccccc2nc2c3ccccc3c(N3CCOCC3)nn12,"3.98 µM [rising, partial curve]"
17,CS(=O)(=O)Nc1cccc(-c2ccc3ncnc(N4CCNCC4)c3c2)c1,"7.94 µM [rising, partial curve]"
18,CC(C)Cc1cc(-c2ccco2)c(C#N)c(N)n1,"2 µM [rising, full curve]"
19,O=S(=O)(NCC(O)COCc1ccco1)c1cccs1 (centres undefined),"0.00316 µM [falling, full curve, poor fit]"
20,COc1ccccc1-n1c(N)c(C(N)=O)sc1=S,"0.126 µM [falling, full curve]"
21,CCCOc1ccc(C2c3c(oc4ccccc4c3=O)C(=O)N2CCN(CC)CC)cc1OC (centres undefined),"12.6 µM [rising, partial curve]"
22,CC(NC(=O)c1cc(-c2ccc(O)cc2)on1)c1ccccc1 (centres undefined),"15.8 µM [falling, partial curve]"
23,CCN(CC)C(=O)c1c[nH]c2ccc(S(=O)(=O)Nc3cc(C)cc(C)c3)cc2c1=O,"31.6 µM [falling, single point]"

row,SMILES,AC50
1,Cc1ccc(-c2csc3nc(C)n(-n4c(C)ccc4C)c(=O)c23)o1,"5.01 µM [falling, single point]"
2,CCOC(=O)c1sc(NC(=O)CSc2nc3c(cc2C#N)CCCCCC3)c(C#N)c1C,"0.158 µM [rising, partial curve]"
3,Cc1cc(C)c2c(N)c(C(=O)N3CCCCCC3)sc2n1,"10 µM [rising, single point]"
4,CCN1C(=O)c2cccc3c(S(=O)(=O)Nc4ccccc4OC)ccc1c23,"6.31 µM [rising, partial curve]"
5,CN(C)c1ncc2nc(-c3ccc(F)cc3)c(=O)n(Cc3cccs3)c2n1,"1 µM [rising, full curve]"
6,CCCCCn1c(-c2ccco2)nc2nc3ccccc3nc21,"12.6 µM [rising, partial curve]"
7,COc1ccc(-c2nc(CSCC(=O)N3CCc4ccccc4C3)c(C)o2)cc1OC,"5.01 µM [rising, partial curve]"
8,O=C(NCc1ccco1)c1cc2nc(-c3cccs3)cc(C(F)(F)F)n2n1,"12.6 µM [rising, partial curve]"
9,Cc1ccccc1,"31.6 µM [rising, single point]"
10,CNC(=O)c1cc2c(=O)n3cccc(C)c3nc2n1C,"0.0158 µM [rising, partial curve, poor fit]"
11,Cc1c(C(=O)OC(C)C)[nH]c2c1C(=O)CCC2,"12.6 µM [rising, single point]"
12,O=C(O)c1ccc(Cl)c(S(=O)(=O)N2CCCCCC2)c1,"10 µM [falling, partial curve]"
13,O=C(Nc1ccc2c(c1)OCCO2)c1ccccc1F,"0.00316 µM [falling, full curve, poor fit]"
14,C[n+]1cccc(/C=C\c2ccc3cccc(O)c3n2)c1,"5.01 µM [rising, single point]"
15,O=C(CCn1c(=O)oc2ccccc21)N1CCc2ccccc21,"3.16 µM [falling, partial curve]"
16,CC(C)=CCCC(C)CN1CCC(O)CC1 (centres undefined),"25.1 µM [rising, single point]"
17,CCC1CCCCN1C(=O)Cn1c(=O)oc2ccccc21 (centres undefined),"5.01 µM [falling, partial curve]"
18,CCOC(=O)C(NC(=O)c1ccccc1)(Nc1cc(C)on1)C(F)(F)F (centres undefined),"0.398 µM [falling, partial curve]"
19,CCN(C(C)=O)c1nnc(CSc2nc3ccccc3s2)s1,"25.1 µM [rising, single point]"
20,CCn1c(N2CCN(CC(=O)c3c(C)n(C)c4ccccc34)CC2)nc2c1c(=O)[nH]c(=O)n2C,"12.6 µM [rising, single point]"
21,Cc1cccc(CNc2nc(-c3ccc(C(=O)N(C)C)cc3)nc3ccccc23)c1,"1.58 µM [rising, partial curve]"
22,CCCCn1c(CN(Cc2ccccc2)Cc2ccccc2)nc2c1c(=O)n(C)c(=O)n2C,"0.126 µM [rising, single point]"
23,COc1ccc(N=Cc2c(O)[nH]c3ccccc23)cc1OC,"6.31 µM [rising, partial curve]"

# A draw from above in order of heavy-atom count, ascending:
row,SMILES,AC50
13,Nc1ccc(-c2nc3c(Cl)cc(N)cc3[nH]2)cc1,"20 µM [falling, single point]"
23,Cc1ccc(C(=O)NC2CCCc3ccccc32)o1 (centres undefined),"12.6 µM [falling, partial curve]"
12,O=C(O)c1ccc(Cl)c(S(=O)(=O)N2CCCCCC2)c1,"10 µM [falling, partial curve]"
3,Cc1cc(C)c2c(N)c(C(=O)N3CCCCCC3)sc2n1,"10 µM [rising, single point]"
8,COc1ccc(C(C)=O)cc1COC(=O)c1cc(C)oc1C,"12.6 µM [rising, partial curve]"
19,CC(=O)N1CCC(C(=O)Nc2nc(-c3ccccc3)ns2)CC1,"10 µM [rising, partial curve]"
11,N#Cc1c(N)nc(SC2CCCCC2=O)c(C#N)c1-c1ccco1 (centres undefined),"10 µM [rising, partial curve]"
6,C=CCn1c(=O)c(C(=O)Nc2ccccc2O)c(O)c2ccccc21,"15.8 µM [rising, single point]"
4,Clc1cccc(-c2nc3nc4ccccc4nc3n2Cc2ccco2)c1,"10 µM [rising, partial curve]"
8,O=C(NCc1ccco1)c1cc2nc(-c3cccs3)cc(C(F)(F)F)n2n1,"12.6 µM [rising, partial curve]"
8,N#CCCn1c(=O)c(-c2ccc(Cl)cc2)nc2cnc(N3CCOCC3)nc21,"10 µM [rising, partial curve]"
14,COCCOC(=O)c1c(C)oc2ccc(OC(=O)c3ccc4c(c3)OCO4)cc12,"1.26 µM [rising, partial curve]"
7,COc1ccc(-c2nc(CSCC(=O)N3CCc4ccccc4C3)c(C)o2)cc1OC,"5.01 µM [rising, partial curve]"
2,CCOC(=O)c1sc(NC(=O)CSc2nc3c(cc2C#N)CCCCCC3)c(C#N)c1C,"0.158 µM [rising, partial curve]"
6,Cc1cc(NC(=O)CSc2nc3cc4c(cc3c(=O)n2CCc2ccccc2)OCO4)no1,"12.6 µM [rising, single point]"
14,Cc1ccccc1-c1nc(CN2CCC(C(=O)NCCCN3CC(C)CC(C)C3)CC2)c(C)o1 (centres undefined),"3.16 µM [falling, full curve, poor fit]"
15,Cc1ccc(Cl)cc1N1CCN(Cc2nc3c(c(=O)[nH]c(=O)n3C)n2CCc2ccccc2)CC1,"0.02 µM [rising, full curve]"
